The results in this text go back to US12622975B2 (priority 2019, dated 2026).

This data set is described as follows: general procedure: Fmoc solid-phase peptide synthesis; 2-chlorotrityl chloride resin (1.0-1.2 mmol/g); HBTU/DIPEA. Particulars: whole synthesis, LC-MS (Waters Acquity UPLC with Micromass detector), scale of the general procedure 0.5 mmol (500 mg resin).
In the case of CLsu-GGFF, the “final LC-MS purity” value is 98.76%.

Regarding CLsu-GGGG, the “final LC-MS purity” value is listed as 99.29%.

For the substance CLsu-GGGGG, the “final LC-MS purity” value is 99.70%.

With CLsu-GGff, the “final LC-MS purity” value stood at 97.62%.
